Source: the supplement of paper PMC8732350
Values joined by “and” are separate entries in the source; they are usually repeats but may differ in a detail not shown here. Equal values may be shown once. Where a name gives a salt, the structure may show the parent alone. ± gives the standard deviation of the averaged measurements. The list shows a part of the results. This data set is noisy: repeats of one test often differ as much as different tests do.

Tested on: A549
Assay: surface PD-L1 immunofluorescence intensity relative to IFN-gamma-only control (ratio); higher = more PD-L1 expression
Conditions: 10 µM; exposure time 24 h; IFN-gamma 100 ng/mL

| SMILES | surface PD-L1 immunofluorescence intensity |
| --- | --- |
| CC(CN(C)C)CN1c2ccccc2CCc2ccccc21 (centres undefined) [Trimipramine maleate salt] | 1.04 |
| Cn1c(N2CCCCS2(=O)=O)nc(C(=O)NCc2ccc(F)cc2)c(O)c1=O | 1.02 |
| COC(=O)[C@H]1[C@H]2C[C@H]3c4[nH]c5ccccc5c4CCN3C[C@H]2CC[C@@H]1O [Rauwolscine hydrochloride] | 1.04 |
| NC[C@H]1O[C@H](O[C@H]2[C@H](O)[C@@H](O[C@H]3O[C@H](CO)[C@@H](O)[C@H](N)[C@H]3O)[C@H](N)C[C@@H]2N)[C@H](N)C[C@@H]1O [Tobramycin] | 0.968 ± 0.031 |
| C=CCOc1ccccc1OCC(O)CNC(C)C (centres undefined) [Oxprenolol hydrochloride] | 1.02 |
| Cc1c(N)c(=O)n(-c2ccccc2)n1C [Ampyrone] | 0.942 |
| Nc1nc2c(cnn2CCc2ccccc2)c2nc(-c3ccco3)nn12 | 0.996 |
| CCOC(=O)/C=C(C)/C=C/C=C(C)/C=C/c1c(C)cc(OC)c(C)c1C [Etretinate] | 1.06 |
| CC(C)(C)c1cc(NC(=O)Nc2ccc(-c3cn4c(n3)sc3cc(OCCN5CCOCC5)ccc34)cc2)no1 [Quizartinib (AC220)] | 1.13 |
| CCN(CC)C(=O)Nc1ccc(OCC(O)CNC(C)(C)C)c(C(C)=O)c1 (centres undefined) [Celiprolol HCl] | 1.08 |
| COc1cc(OC)c(NC(=O)Nc2cc(C)on2)cc1Cl | 1.04 |
| CNC(=O)c1ccc(N2C(=S)N(c3ccc(C#N)c(C(F)(F)F)c3)C(=O)C2(C)C)cc1F [MDV3100 (Enzalutamide)] | 1.08 |
| N[C@H]1CONC1=O [(S)-(-)-Cycloserine] | 1.04 |
| CCCCC1C(=O)N(c2ccccc2)N(c2ccc(O)cc2)C1=O (centres undefined) [Oxyphenbutazone] | 0.947 |
| O=c1c(O)c(-c2ccc(O)cc2)oc2cc(O)cc(O)c12 [Kaempferol] | 1.03 |
| N#C/C(=C(/N)Sc1ccc(N)cc1)c1ccccc1C(F)(F)F | 0.988 and 0.979 |
| CC(C)(CO)[C@@H](O)C(=O)NCCC(=O)O [Pantothenic acid (pantothenate)] | 0.987 |
| CCN(CC)C(=O)C1(c2ccccc2)CC1CN (centres undefined) [Milnacipran HCl] | 0.945 |
| Cc1cc(C(C)(C)C)cc(C)c1CC1=NCCN1 [Xylometazoline hydrochloride] | 1 |
| CCN(CCCCOC(=O)c1ccc(OC)c(OC)c1)C(C)Cc1ccc(OC)cc1 (centres undefined) [Mebeverine hydrochloride] | 0.996 |
| COc1cc(NC(=O)c2ccccn2)ccc1Cl | 1 |
| O=P(O)(O)C(O)(Cn1ccnc1)P(=O)(O)O [Zoledronic Acid (Zoledronate)] | 0.957 |
| O=c1nc2ccccc2c2n1CC(CN1CCN(c3ccccc3)CC1)N2 (centres undefined) | 1.03 |
| CC#CCn1c(N2CCC[C@@H](N)C2)nc2c1c(=O)n(Cc1nc(C)c3ccccc3n1)c(=O)n2C [Linagliptin (BI-1356)] | 1.02 |
| CCN(CC)CCOCCOC(=O)C1(c2ccccc2)CCCC1 [Carbetapentane citrate] | 0.998 ± 0.032 |

| SMILES | surface PD-L1 immunofluorescence intensity |
| --- | --- |
| Nc1c(O)cc(O)cc1C=Cc1ccc(O)cc1 [Aminoresveratrol sulfate] | 1.04 |
| COc1ccc(Cl)cc1C(=O)NCCc1ccc(S(=O)(=O)NC(=O)NC2CCCCC2)cc1 [Glibenclamide] | 0.975 ± 0.094 |
| COc1ccc(Cl)cc1C(=O)NCCc1ccc(S(=O)(=O)NC(=O)NC2CCCCC2)cc1 [Glyburide] | 0.872 |
| Nc1nc(=O)n([C@@H]2CS[C@H](CO)O2)cc1F [(-)-Emtricitabine] | 0.909 |
| COc1cc(SC)ccc1C(=O)N1CCC(Cc2ccccc2)CC1 | 0.951 |
| CC#C[C@]1(O)CC[C@H]2[C@@H]3CCC4=CC(=O)CCC4=C3[C@@H](c3ccc(N(C)C)cc3)C[C@@]21C [Mifepristone] | 1.03 ± 0.023 |
| CC#C[C@]1(O)CC[C@H]2[C@@H]3CCC4=CC(=O)CCC4=C3[C@@H](c3ccc(N(C)C)cc3)C[C@@]21C [Mifepristone (Mifeprex)] | 0.992 |
| COC(=O)C1=CO[C@@H](O)[C@@H]2C(CO)=CC[C@H]12 [Genipin] | 0.794 |
| Cc1nc(C(=O)NCC(=O)O)c(O)c2ccc(Oc3ccccc3)cc12 | 1.08 |
| CCCOc1ccccc1-c1nc2[nH]nnc2c(=O)[nH]1 [Zaprinast] | 1 |
| CCC[C@@H]1C[C@@H](C(=O)N[C@@H]([C@H]2O[C@H](SC)[C@H](OP(=O)(O)O)[C@@H](O)[C@H]2O)[C@H](C)Cl)N(C)C1 [Clindamycin phosphate] | 1.12 |
| CC(C)[C@H](N)C(=O)OCCOCn1cnc2c(=O)nc(N)[nH]c21 [Valacyclovir hydrochloride] | 1.03 |
| CC(C)N(CC[C@H](c1ccccc1)c1cc(CO)ccc1O)C(C)C | 1.03 |
| CN1CCN2c3ncccc3Cc3ccccc3C2C1 (centres undefined) [Mirtazepine] | 0.959 |
| CN1CCN2c3ncccc3Cc3ccccc3C2C1 (centres undefined) [Mirtazapine] | 1.02 |
| CN(C(=O)CN(CCO)CC(=O)N(C)C(C)(C)Cc1ccccc1)C(C)(C)Cc1ccccc1 [Oxethazaine] | 0.903 |
| COC(=O)N/N=C/c1c[n+]([O-])c2ccccc2[n+]1[O-] [Carbadox] | 1.08 |
| CC1(C)O[C@@H]2C[C@H]3[C@@H]4C[C@H](F)C5=CC(=O)C=C[C@]5(C)[C@@]4(F)[C@@H](O)C[C@]3(C)[C@]2(C(=O)CO)O1 [Fluocinolone acetonide] | 0.912 |
| CC1(C)O[C@@H]2C[C@H]3[C@@H]4C[C@H](F)C5=CC(=O)C=C[C@]5(C)[C@@]4(F)[C@@H](O)C[C@]3(C)[C@]2(C(=O)CO)O1 [Fluocinolone acetonide (Flucort-N)] | 0.82 |
| COc1cc(NS(=O)(=O)c2ccc(N)cc2)ncn1 [Sulfamonomethoxine] | 1.03 |
| Cc1cc(C)nc(NS(=O)(=O)c2ccc(N)cc2)n1 [Sulfamethazine] | 1.02 |
| Cc1cc(C)nc(NS(=O)(=O)c2ccc(N)cc2)n1 [Sulfamethazine sodium salt] | 0.942 |
| Cc1ccc(OCC(O)C(C)NC(C)C)c2c1CCC2 (centres undefined) [ICI-118,551 hydrochloride] | 0.845 |
| CCn1c(=O)c2c(nc(/C=C/c3ccc(OC)c(OC)c3)n2C)n(CC)c1=O [Istradefylline (KW-6002)] | 1.01 |

Some of the entries so far, with each value named:
CC#C[C@]1(O)CC[C@H]2[C@@H]3CCC4=CC(=O)CCC4=C3[C@@H](c3ccc(N(C)C)cc3)C[C@@]21C [Mifepristone (Mifeprex)]
  surface PD-L1 immunofluorescence intensity: 0.992
COC(=O)C1=CO[C@@H](O)[C@@H]2C(CO)=CC[C@H]12 [Genipin]
  surface PD-L1 immunofluorescence intensity: 0.794
Cc1nc(C(=O)NCC(=O)O)c(O)c2ccc(Oc3ccccc3)cc12
  surface PD-L1 immunofluorescence intensity: 1.08
CCCOc1ccccc1-c1nc2[nH]nnc2c(=O)[nH]1 [Zaprinast]
  surface PD-L1 immunofluorescence intensity: 1
